{"source": "PubChem BioAssay AID1224828 (NIAID, 2016)", "aim": "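Find genes required for NF-kappaB p65 moving into the nucleus after LPS in mouse macrophages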 (primary screen)", "system": "mouse RAW264.7 G9 macrophage reporter cells (GFP-p65, Tnf promoter-mCherry)", "reagents": "siRNA pool against mouse genes, 100 nM", "duration": "2 days siRNA transfection, then 40 min LPS before fixation", "treatment": "LPS (Salmonella minnesota R595) at 10 ng/ml", "detection": "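Imaged p65 nuclear translocation ratio, normalised to the plate median, converted to robust z-scores and averaged across two replicates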", "direction": "p65 translocation robust z-score: higher = more nuclear NF-kappaB p65 after LPS than the plate median; nuclear/cytoplasmic p65 ratio: higher = more nuclear NF-kappaB p65", "call rule": "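Active if robust z is above 3.3 (negative regulators) or below -1.56, the Tlr4 control median (positive regulators); activity score 50 or more; control wells not called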", "meaning of the calls": "active = hit (p65 shift raised or lowered); inactive = no clear change", "note": "Shown is a random part of about 17,000 reagents tested. 762 of all reagents (4.5%) were called active. 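Active calls include both raised and lowered p65 entry, mostly lowered; wells with fewer than 50 cells lack a z-score.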 Raw values vary from plate to plate and are shown uncorrected. Unmarked entries are inactive."}
{"Target gene": "Ilf3 (GeneID 16201)", "p65 translocation robust z-score": -0.4, "nuclear/cytoplasmic p65 ratio, rep 1": 1.4, "nuclear/cytoplasmic p65 ratio, rep 2": 1.35, "low cell count flag": "enough cells to score"}
{"Target gene": "Fbxo34 (GeneID 78938)", "p65 translocation robust z-score": 0.49, "nuclear/cytoplasmic p65 ratio, rep 1": 1.65, "nuclear/cytoplasmic p65 ratio, rep 2": 1.55, "low cell count flag": "enough cells to score"}
{"Target gene": "Dmpk (GeneID 13400)", "p65 translocation robust z-score": 1.13, "nuclear/cytoplasmic p65 ratio, rep 1": 1.89, "nuclear/cytoplasmic p65 ratio, rep 2": 1.51, "low cell count flag": "enough cells to score"}
{"Target gene": "Foxa1 (GeneID 15375)", "p65 translocation robust z-score": -0.02, "nuclear/cytoplasmic p65 ratio, rep 1": 1.45, "nuclear/cytoplasmic p65 ratio, rep 2": 1.35, "low cell count flag": "enough cells to score"}
{"Target gene": "Kazn (GeneID 71529)", "p65 translocation robust z-score": 0.87, "nuclear/cytoplasmic p65 ratio, rep 1": 1.59, "nuclear/cytoplasmic p65 ratio, rep 2": 1.62, "low cell count flag": "enough cells to score"}
{"Target gene": "Or8h9 (GeneID 258764)", "p65 translocation robust z-score": 0.18, "nuclear/cytoplasmic p65 ratio, rep 1": 1.69, "nuclear/cytoplasmic p65 ratio, rep 2": 1.6, "low cell count flag": "enough cells to score"}

The list goes on, starting with the last 2 of the part before.
{"Target gene": "Kazn (GeneID 71529)", "p65 translocation robust z-score": 0.87, "nuclear/cytoplasmic p65 ratio, rep 1": 1.59, "nuclear/cytoplasmic p65 ratio, rep 2": 1.62, "low cell count flag": "enough cells to score"}
{"Target gene": "Or8h9 (GeneID 258764)", "p65 translocation robust z-score": 0.18, "nuclear/cytoplasmic p65 ratio, rep 1": 1.69, "nuclear/cytoplasmic p65 ratio, rep 2": 1.6, "low cell count flag": "enough cells to score"}
{"Target gene": "Ier3ip1 (GeneID 66191)", "nuclear/cytoplasmic p65 ratio, rep 1": 1.4, "nuclear/cytoplasmic p65 ratio, rep 2": 1.32, "low cell count flag": "fewer than 50 cells per well; well left out of scoring"}
{"Target gene": "Zfp61 (GeneID 22719)", "p65 translocation robust z-score": -0.24, "nuclear/cytoplasmic p65 ratio, rep 1": 1.4, "nuclear/cytoplasmic p65 ratio, rep 2": 1.21, "low cell count flag": "enough cells to score"}
{"Target gene": "Or9e1 (GeneID 258530)", "nuclear/cytoplasmic p65 ratio, rep 1": 1.48, "nuclear/cytoplasmic p65 ratio, rep 2": 1.37, "low cell count flag": "fewer than 50 cells per well; well left out of scoring"}
{"Target gene": "Fbxo3 (GeneID 57443)", "p65 translocation robust z-score": 0.14, "nuclear/cytoplasmic p65 ratio, rep 1": 1.45, "nuclear/cytoplasmic p65 ratio, rep 2": 1.41, "low cell count flag": "enough cells to score"}
{"Target gene": "Slc35g3 (GeneID 56293)", "p65 translocation robust z-score": 1.43, "nuclear/cytoplasmic p65 ratio, rep 1": 1.88, "nuclear/cytoplasmic p65 ratio, rep 2": 1.85, "low cell count flag": "enough cells to score"}
{"Target gene": "Ahrr (GeneID 11624)", "p65 translocation robust z-score": 0.46, "nuclear/cytoplasmic p65 ratio, rep 1": 1.66, "nuclear/cytoplasmic p65 ratio, rep 2": 1.72, "low cell count flag": "enough cells to score"}
{"Target gene": "Trip12 (GeneID 14897)", "p65 translocation robust z-score": -0.47, "nuclear/cytoplasmic p65 ratio, rep 1": 1.31, "nuclear/cytoplasmic p65 ratio, rep 2": 1.33, "low cell count flag": "enough cells to score"}
{"Target gene": "Pde8b (GeneID 218461)", "p65 translocation robust z-score": -0.41, "nuclear/cytoplasmic p65 ratio, rep 1": 1.57, "nuclear/cytoplasmic p65 ratio, rep 2": 1.54, "low cell count flag": "enough cells to score"}
